The conditions of this data set: human, plasma, oral, AUC0–∞, median (IQR).

This passage reports AUC(0-inf) results from paper PMC3712822 (Pharmacotherapy, 2011).

Read-outs that look alike come from different tables or passages of the source.

Consider `CC(C)c1c(C(=O)Nc2ccccc2)c(-c2ccccc2)c(-c2ccc(F)cc2)n1CC[C@@H](O)C[C@@H](O)CC(=O)O` [atorvastatin acid, atorvastatin, reference compound], for which the AUC(0-inf) (commonly the area under the concentration-time curve extrapolated to infinity) by setting is: (20 mg, CYP3A5 expressors (n=10), atorvastatin only) 40.7 ng·h/mL; (20 mg, CYP3A5 nonexpressors (n=13), atorvastatin only) 38.6 ng·h/mL; (CYP3A5 expressors (n=10), atorvastatin + clarithromycin) 102 ng·h/mL; (CYP3A5 nonexpressors (n=13), atorvastatin + clarithromycin) 119 ng·h/mL.
